Data reported in PubChem BioAssay AID504834 (National Center for Advancing Translational Sciences (NCATS), 2011).
The campaign covered roughly 320,000 compounds. About 22,000 (6.9%) were called active. Inconclusive results, whose numbers are uncertain, are shown with a selection of clear calls. Calls come from the whole dose curve; as a rule, active = well fitted inhibition curve with a large enough effect; inconclusive = small, poorly fitted or top-dose-only effect, or another doubt; inactive = no such curve, though single readings can be large or run the other way. A potency beside an inconclusive call is a rough fit, not a confirmed value.

Assay: Primary qHTS for delayed death inhibitors of the malarial parasite plastid, 96 hour incubation
Conditions: P. falciparum luciferase reporter growth; series mostly up to 28.7 µM; activity change, negative = inhibition: at the top concentration
How it was run: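 Parasite growth measured via integrated firefly luciferase reporter in P. falciparum. Infected erythrocytes at 2% hematocrit, 0.05% parasitemia final were treated 96 hours at 37 C under 5% CO2, and luminescence was read.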
% is set by controls: 0 for no effect and ±100 for the full control effect; potency is the fitted concentration of half-maximal effect.

**Q.** For CCOC(=O)N1CCN(c2cc(NCCO)c([N+](=O)[O-])c3nonc23)CC1, which Potency is on record?
**A.** The Potency was inconclusive: 2.33 µM [inhibitor, full curve, poor fit].

**Q.** For Cc1cc(C(=O)CN2C(=O)c3ccccc3S2(=O)=O)c(C)n1CC1CCCO1 (stereo not drawn), which “activity change, negative = inhibition” value is on record?
**A.** Its value is inactive: 9.72%.

**Q.** With CC1Cc2ccccc2N1C(=O)CSc1nnc(Cn2nnc3ccccc32)n1C (stereo not drawn) as the compound, how does the Potency read?
**A.** Its Potency is inconclusive: 2.94 µM [inhibitor, partial curve].

**Q.** Which Potency does the source give for CCCCCN1CN(S(=O)(=O)c2cccs2)c2nc3ccccc3nc21 here?
**A.** Its Potency is inconclusive: 9.28 µM [inhibitor, partial curve, poor fit].

**Q.** For O=C(CCCCCN1C(=O)[C@@H]2Cc3ccccc3CN2C1=O)NCCc1ccccc1, which Potency is on record?
**A.** Its Potency is inconclusive: 14.7 µM [inhibitor, single point].

**Q.** With Cc1ccc(NC(=O)C2CCC(CNC(=O)[C@@H]3Cc4ccccc4CN3)CC2)cc1 (stereo partly drawn) as the compound, how does the Potency read?
**A.** Its Potency is inconclusive: 14.7 µM [inhibitor, single point].

**Q.** Which Potency does the source give for Nc1nc(C2CCCN2S(=O)(=O)c2ccc(Cl)cc2)cs1 (stereo not drawn) here?
**A.** The Potency was inconclusive: 14.7 µM [inhibitor, single point].

**Q.** With CC(=O)N1c2ccc(S(=O)(=O)N3CCC(C(=O)N4CCN(c5ccccc5)CC4)CC3)cc2CC1C (stereo not drawn) as the compound, how does the Potency read?
**A.** Its Potency is inconclusive: 18.5 µM [inhibitor, single point].

**Q.** Which Potency does the source give for CC1CCc2cc(F)ccc2N1C(=O)CCl (stereo not drawn) here?
**A.** The Potency was inconclusive: 0.828 µM [inhibitor, full curve, poor fit].

**Q.** Which Potency does the source give for COc1ccccc1N1CCN(C(=O)c2ccc(-c3ccc(Cl)cc3)o2)CC1 here?
**A.** Its Potency is active: 11.7 µM.

**Q.** Which Potency does the source give for COc1ccc(O)c(/C=N/Nc2nc(Nc3ccccc3)nc(-n3nc(C)cc3C)n2)c1 here?
**A.** The Potency was active: 2.08 µM.

**Q.** Which Potency does the source give for CN1CCN(C(CNC(=O)Nc2ccc(Cl)cc2)c2ccc(F)cc2)CC1 (stereo not drawn) here?
**A.** The Potency was inconclusive: 20.8 µM [inhibitor, partial curve, poor fit].

**Q.** For Cn1c(COc2ccc(Cl)cc2)nnc1SCC(=O)Nc1ccc2c(c1)CCC2, which Potency is on record?
**A.** The Potency was inconclusive: 5.86 µM [inhibitor, partial curve].

**Q.** With Cc1ccc(C2CC(=O)NC(SCc3ccccc3)=C2C#N)o1 (stereo not drawn) as the compound, how does the Potency read?
**A.** The Potency was inconclusive: 18.5 µM [inhibitor, single point].

**Q.** With Cc1nc(Cl)c(C(=O)NC(=O)NCc2ccccc2)c(C)c1Cl as the compound, how does the Potency read?
**A.** Its Potency is active: 13.1 µM.

**Q.** For CCOP(=O)(OCC)c1nc(-c2cccc3ccccc23)oc1NCc1ccccc1, which Potency is on record?
**A.** Its Potency is inconclusive: 2.08 µM [inhibitor, full curve, poor fit].

**Q.** With Cc1ccc(C)c(S(=O)(=O)N2CCCOC2CNC(=O)C(=O)NCCN2CCOCC2)c1 (stereo not drawn) as the compound, how does the “activity change, negative = inhibition” value read?
**A.** Its value is inactive: -15.4%.

**Q.** For Cc1ccc(C)c(N2CCN(S(=O)(=O)c3cn(C)cn3)CC2)c1, which Potency is on record?
**A.** The Potency was inconclusive: 9.28 µM [inhibitor, partial curve, poor fit].

**Q.** For Cc1ccc(NC(=S)N(C)C(c2ccccc2)c2ccccc2)cc1C, which Potency is on record?
**A.** The Potency was inconclusive: 10.4 µM [inhibitor, single point].

**Q.** Which Potency does the source give for CCn1nc(C(=O)NNC(=O)c2cc(Cl)ccc2OC)c2ccccc2c1=O here?
**A.** The Potency was inconclusive: 18.5 µM [inhibitor, single point].

**Q.** Which Potency does the source give for COc1ccc(C(c2nnnn2Cc2cccs2)N2CCC(C(N)=O)CC2)c(OC)c1 (stereo not drawn) here?
**A.** Its Potency is inconclusive: 13.1 µM [inhibitor, single point].

**Q.** For CN(Cc1ccccc1)C(=O)CC(c1ccccc1)c1cc(Cl)ccc1O (stereo not drawn), which Potency is on record?
**A.** The Potency was active: 10.4 µM.

**Q.** For Cc1ccc(C(=O)CN(CCC(=O)O)S(=O)(=O)c2ccc([N+](=O)[O-])cc2)cc1, which “activity change, negative = inhibition” value is on record?
**A.** The value was inactive: 51.7%.

**Q.** With COc1ccc(N2CCN(C(=O)C3Cc4ccccc4CN3C(=O)c3ccco3)CC2)cc1 (stereo not drawn) as the compound, how does the Potency read?
**A.** Its Potency is inconclusive: 11.7 µM [inhibitor, single point].

**Q.** For O=C1C2CCc3ccccc3C2N1c1ccccc1 (stereo not drawn), which Potency is on record?
**A.** The Potency was inconclusive: 5.22 µM [inhibitor, single point].

**Q.** With CC(=O)Nc1ccc(S(=O)(=O)Nc2cc(C)cn(Cc3ccc(C)cc3)c2=O)cc1 as the compound, how does the Potency read?
**A.** The Potency was inconclusive: 9.28 µM [inhibitor, partial curve, poor fit].

**Q.** For Cc1cc(N2CCCC2)n2nc(C)c(-c3ccccc3)c2n1, which “activity change, negative = inhibition” value is on record?
**A.** The value was inactive: 61.6%.

**Q.** Which Potency does the source give for Cc1cc(C)c(NC(=O)Cn2nnc(C(=O)Nc3ccc(F)cc3F)c2N)c(C)c1 here?
**A.** Its Potency is active: 2.62 µM.

**Q.** For O=C(NCC(=O)N1CCN(S(=O)(=O)c2ccc3c(c2)OCCO3)CC1)c1ccccc1Cl, which Potency is on record?
**A.** Its Potency is inconclusive: 13.1 µM [inhibitor, partial curve, poor fit].

**Q.** With CC(C)c1ccc(O)c(NC(=O)c2cccnc2)c1 as the compound, how does the Potency read?
**A.** The Potency was active: 10.4 µM.

**Q.** Which Potency does the source give for COc1ccccc1NS(=O)(=O)c1cc(NC(=O)c2cc[n+]([O-])cc2)ccc1N1CCCC1 here?
**A.** The Potency was inconclusive: 5.22 µM [inhibitor, partial curve].

**Q.** Which “activity change, negative = inhibition” value does the source give for CC(=O)Nc1ccc(C(=O)c2ccccc2)cc1 here?
**A.** The value was inactive: 54.2%.

**Q.** For CN(Cc1ccccc1)CC(O)COc1ccc(CNCCCOc2cccnc2)cc1 (stereo not drawn), which Potency is on record?
**A.** The Potency was inconclusive: 13.1 µM [inhibitor, single point].

**Q.** For O=C(O)C1=C[C@@H](c2csc3ccccc23)C[C@@H](OCc2ccc(CO)cc2)O1, which “activity change, negative = inhibition” value is on record?
**A.** Its value is inactive: 53%.

**Q.** For CC(=O)NC1CCN(C(=O)N2CCCC2)CC1, which Potency is on record?
**A.** The Potency was inconclusive: 5.86 µM [inhibitor, partial curve].

**Q.** With CC(=O)N1CCN(Cc2nc3cc(NC(=O)c4ccccc4)ccc3n2C)CC1 as the compound, how does the “activity change, negative = inhibition” value read?
**A.** Its value is inactive: -12.1%.

**Q.** With Cc1ccc(C(=O)Nc2c(C)cc(C)c3cccnc23)cc1 as the compound, how does the Potency read?
**A.** The Potency was inconclusive: 10.4 µM [inhibitor, single point].

**Q.** Which Potency does the source give for CC(C)(C)OC(=O)NNC(=O)C12CC3CC(CC(C3)C1)C2 here?
**A.** The Potency was inconclusive: 1.65 µM [inhibitor, full curve, poor fit].

**Q.** Which Potency does the source give for C/C(=N\NC(=O)c1ccc(Cn2cc(Br)cn2)o1)c1cccc(NC(=O)C(C)(C)C)c1 here?
**A.** Its Potency is inconclusive: 13.1 µM [inhibitor, single point].

**Q.** Which Potency does the source give for CC(NC(=O)c1ccc(Br)o1)C1CC2CCC1C2 (stereo not drawn) here?
**A.** The Potency was active: 1.04 µM.

**Q.** For C=CCn1c(SCC(=O)Nc2cccc3ccccc23)nc(O)c(CC)c1=O, which Potency is on record?
**A.** Its Potency is active: 9.28 µM.

**Q.** Which Potency does the source give for COc1ccccc1NC(=O)C1CCCN(c2cc(C)nc3ncnn23)C1 (stereo not drawn) here?
**A.** Its Potency is inconclusive: 18.5 µM [inhibitor, single point].

**Q.** Which Potency does the source give for O=C(CO/N=C/c1ccccc1Cl)N1CCCc2ccccc21 here?
**A.** Its Potency is inconclusive: 4.15 µM [inhibitor, single point].
